{"source": "PubChem BioAssay AID720505 | Drosophila RNAi Screening Center – 2013", "assay": "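Genes needed for store-operated calcium entry in fly cells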 (primary screen)", "system": "Drosophila S2R+ cells", "reagents": "long dsRNA against Drosophila genes", "treatment": "thapsigargin (2 µM) in calcium-free buffer to empty internal stores, then 2 mM calcium added back", "measurement": "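Stores emptied by 2 µM thapsigargin without calcium, then 2 mM calcium re-added; fluo-4 fluorescence followed by FLIPR in 384-well plates, per-well averaged endpoint, raw; two screen passes, some wells retested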", "scale": "calcium signal: higher = more calcium entry after store depletion", "call rule": "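Knock-downs counted as hits when calcium entry dropped relative to STIM1 positive and Rho1 negative controls present on each plate; roughly 1500 genes called, with reductions of differing size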", "meaning of the calls": "active = called as lowering calcium entry; inactive = not called", "note": "The deposit covers about 20,000 reagents; below is an unselected part of those with a known target gene and a result. In the full data, about 2,100 (10%) are marked active. 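Raw plate signals without normalisation; calls rest on control-based scores that were not deposited; replicate 2 separates called from uncalled poorly.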 Names joined by + are all predicted targets of the reagent. Reagent sequences are not shown. The record does not give: the amount of reagent, the time to read-out."}
{"predicted target": "CG3368", "DRSC id": "DRSC15485", "calcium signal, replicate 1": 114, "calcium signal, replicate 2": 119, "outcome": "inactive"}
{"predicted target": "Cnep1r1 (CTD nuclear envelope phosphatase 1 regulatory subunit 1)", "DRSC id": "DRSC20620", "calcium signal, replicate 1": 152, "calcium signal, replicate 2": 105, "outcome": "inactive"}
{"predicted target": "CG13685", "DRSC id": "DRSC10043", "calcium signal, replicate 1": 92.5, "calcium signal, replicate 2": 74.4, "outcome": "inactive"}
{"predicted target": "CG1983", "DRSC id": "DRSC15410", "calcium signal, replicate 1": 118, "calcium signal, replicate 2": 107, "outcome": "inactive"}
{"predicted target": "Cpr67B (Cuticular protein 67B)", "DRSC id": "DRSC10373", "calcium signal, replicate 1": 96.4, "calcium signal, replicate 2": 152, "outcome": "inactive"}
{"predicted target": "Coq2 (Coenzyme Q biosynthesis protein 2)", "DRSC id": "DRSC16516", "calcium signal, replicate 1": 128, "calcium signal, replicate 2": 120, "outcome": "inactive"}
{"predicted target": "Coq2 (Coenzyme Q biosynthesis protein 2)", "DRSC id": "DRSC21366", "calcium signal, replicate 1": 144, "calcium signal, replicate 2": 133, "outcome": "inactive"}
{"predicted target": "CG14892", "DRSC id": "DRSC15014", "calcium signal, replicate 1": 87, "calcium signal, replicate 2": 96.8, "outcome": "inactive"}
{"predicted target": "dany (distal antenna-young)", "DRSC id": "DRSC04141", "calcium signal, replicate 1": 184, "calcium signal, replicate 2": 88, "outcome": "inactive"}
{"predicted target": "CG12209", "DRSC id": "DRSC06119", "calcium signal, replicate 1": 85.5, "calcium signal, replicate 2": 148, "outcome": "inactive"}
{"predicted target": "CG34315 + Orc3", "DRSC id": "DRSC07642", "calcium signal, replicate 1": 156, "calcium signal, replicate 2": 149, "outcome": "inactive"}
{"predicted target": "egh (egghead)", "DRSC id": "DRSC18771", "calcium signal, replicate 1": 95.4, "calcium signal, replicate 2": 130, "outcome": "inactive"}
{"predicted target": "CG13538", "DRSC id": "DRSC04180", "calcium signal, replicate 1": 174, "calcium signal, replicate 2": 240, "outcome": "inactive"}
{"predicted target": "GAPcenA (GTPase activating protein and centrosome-associated)", "DRSC id": "DRSC10771", "calcium signal, replicate 1": 83.3, "calcium signal, replicate 2": 45.5, "outcome": "inactive"}
{"predicted target": "FMRFa (FMRFamide)", "DRSC id": "DRSC07428", "calcium signal, replicate 1": 95.2, "calcium signal, replicate 2": 88.2, "outcome": "inactive"}
{"predicted target": "Sans (Scaffold protein containing ankyrin repeats and SAM domain)", "DRSC id": "DRSC06357", "calcium signal, replicate 1": 115, "calcium signal, replicate 2": 93.8, "outcome": "inactive"}
{"predicted target": "CG13643", "DRSC id": "DRSC14641", "calcium signal, replicate 1": 134, "calcium signal, replicate 2": 124, "outcome": "inactive"}
{"predicted target": "CG13643", "DRSC id": "DRSC14642", "calcium signal, replicate 1": 122, "calcium signal, replicate 2": 136, "outcome": "inactive"}
{"predicted target": "Mhc (Myosin heavy chain)", "DRSC id": "DRSC03367", "calcium signal, replicate 1": 66, "calcium signal, replicate 2": 107, "outcome": "active"}
{"predicted target": "CG4611", "DRSC id": "DRSC10434", "calcium signal, replicate 1": 105, "calcium signal, replicate 2": 88.5, "outcome": "inactive"}
{"predicted target": "CYTB (retired record)", "DRSC id": "DRSC21272", "calcium signal, replicate 1": 180, "calcium signal, replicate 2": 84.6, "outcome": "inactive"}
{"predicted target": "Prosbeta5 (Proteasome beta5 subunit)", "DRSC id": "DRSC07517", "calcium signal, replicate 1": 66.8, "calcium signal, replicate 2": 117, "outcome": "active"}
{"predicted target": "CG30288", "DRSC id": "DRSC22005", "calcium signal, replicate 1": 77.2, "calcium signal, replicate 2": 137, "outcome": "inactive"}
{"predicted target": "CG13544", "DRSC id": "DRSC04186", "calcium signal, replicate 1": 120, "calcium signal, replicate 2": 273, "outcome": "inactive"}
{"predicted target": "CG15545", "DRSC id": "DRSC15083", "calcium signal, replicate 1": 158, "calcium signal, replicate 2": 164, "outcome": "inactive"}
{"predicted target": "Zwilch", "DRSC id": "DRSC15376", "calcium signal, replicate 1": 212, "calcium signal, replicate 2": 123, "outcome": "inactive"}
{"predicted target": "CG13760", "DRSC id": "DRSC18617", "calcium signal, replicate 1": 121, "calcium signal, replicate 2": 117, "outcome": "inactive"}
{"predicted target": "PH4alphaMP (prolyl-4-hydroxylase-alpha MP)", "DRSC id": "DRSC17031", "calcium signal, replicate 1": 143, "calcium signal, replicate 2": 147, "outcome": "inactive"}
{"predicted target": "CG13605", "DRSC id": "DRSC14608", "calcium signal, replicate 1": 127, "calcium signal, replicate 2": 337, "outcome": "inactive"}
{"predicted target": "ari-2 (ariadne 2)", "DRSC id": "DRSC04672", "calcium signal, replicate 1": 56.1, "calcium signal, replicate 2": 230, "outcome": "inactive"}
{"predicted target": "CG4036", "DRSC id": "DRSC02735", "calcium signal, replicate 1": 128, "calcium signal, replicate 2": 160, "outcome": "inactive"}
{"predicted target": "CG43689", "DRSC id": "DRSC18046", "calcium signal, replicate 1": 107, "calcium signal, replicate 2": 124, "outcome": "inactive"}
{"predicted target": "CG43689", "DRSC id": "DRSC18383", "calcium signal, replicate 1": 196, "calcium signal, replicate 2": 126, "outcome": "inactive"}
{"predicted target": "CG43689", "DRSC id": "DRSC22467", "calcium signal, replicate 1": 109, "calcium signal, replicate 2": 126, "outcome": "inactive"}
{"predicted target": "CG43689", "DRSC id": "DRSC23070", "calcium signal, replicate 1": 99.6, "calcium signal, replicate 2": 89, "outcome": "inactive"}

Sorted by “calcium signal, replicate 1” (ascending): some entries from above.
{"predicted target": "CG13685", "DRSC id": "DRSC10043", "calcium signal, replicate 1": 92.5, "calcium signal, replicate 2": 74.4, "outcome": "inactive"}
{"predicted target": "Cpr67B (Cuticular protein 67B)", "DRSC id": "DRSC10373", "calcium signal, replicate 1": 96.4, "calcium signal, replicate 2": 152, "outcome": "inactive"}
{"predicted target": "CG1983", "DRSC id": "DRSC15410", "calcium signal, replicate 1": 118, "calcium signal, replicate 2": 107, "outcome": "inactive"}
{"predicted target": "Coq2 (Coenzyme Q biosynthesis protein 2)", "DRSC id": "DRSC16516", "calcium signal, replicate 1": 128, "calcium signal, replicate 2": 120, "outcome": "inactive"}
